Source: PubChem BioAssay AID602196 (INSERM, 2012)

Test: 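Knock-downs that protect lung cancer cells from cisplatin or sensitise them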
Cell system: human A549 lung cancer cells
Reagent: siRNA pair against human genes
Timing: 48 h transfection before cisplatin; time from cisplatin to read-out not stated
Challenge: cisplatin at a dose killing half of control-siRNA cells; exact dose and duration not given
Measured: 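Shift in cisplatin death relative to control siRNA, from -50 (all cells die) to +50 (no cells die); siRNAs harmful on their own scored 0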
Reading the numbers: two-siRNA summed score (-2 to +2): higher = both siRNAs protect from cisplatin killing; -2 means both sensitise; mean protection from cisplatin (shift in death) and protection from cisplatin (shift in death), siRNA C: higher = protection from cisplatin killing
Active means: 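siRNAs harmful alone (LDH or WST-1) get 0; others get +1 for less and -1 for more cisplatin killing; genes are active when the two siRNAs give the same sign, summing to ±2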
Calls: active = both siRNAs shift cisplatin killing the same way; inactive = no consistent shift, or siRNA harmful alone
The whole screen tested about 23,000 reagents; this is a part drawn at random. 455 of them (2%) count as active. 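Active includes both protection and sensitisation; some change values fall well beyond the stated -50 to +50 range.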 Further read-outs or replicates are left out here. Not given: the amount of reagent.

| gene symbol | two-siRNA summed score (-2 to +2) | mean protection from cisplatin (shift in death) (%) | protection from cisplatin (shift in death), siRNA C (%) | Outcome |
| --- | --- | --- | --- | --- |
| TASOR2 | 0 | 6.3 | 11.1 | inactive |
| PRKG1 | 0 | -7.3 | 0.2 | inactive |
| LOC441993 | 0 | 13 | 23.9 | inactive |
| MARCHF5 | 0 | 1.5 | 1.8 | inactive |
| AGXT2 | 1 | 9 | 23.2 | inactive |
| TRIM40 | 1 | 18.5 | 22 | inactive |
| PRDM16 | 0 | -1.2 | 6.1 | inactive |
| OR4A47 | 0 | 2.4 | -3.3 | inactive |
| CHEK1 | 0 | 1.5 | 10.4 | inactive |
| FAM131A | 0 | -0.7 | 2.1 | inactive |
| HCG27 | 0 | 9.3 | 15.6 | inactive |
| COBLP1 | 0 | 10.7 | 14.7 | inactive |
| BMP5 | 0 | 3.6 | 7.8 | inactive |
| SCAND2P | 0 | 0.9 | -4.9 | inactive |
| HSPA14 | 0 | -6.6 | -5.3 | inactive |
| UTP25 | 1 | 6.4 | 22.6 | inactive |
| SERHL2 | 0 | 5 | 0.1 | inactive |
| TMEM255A | 0 | 2.8 | -5.3 | inactive |
| KIN | 1 | 1.2 | -4.6 | inactive |
| APOBEC1 | 0 | 4.8 | 0.6 | inactive |
| HDAC11 | 0 | 11.6 | 3.3 | inactive |
| BTBD2 | 0 | -2.8 | -0.7 | inactive |
| LOC390387 | 0 | -0.5 | -0.4 | inactive |
| DGAT2 | 0 | 11.4 | -0.7 | inactive |
| DXO | 0 | 11.1 | -10.4 | inactive |
| LOC440075 | 0 | 2.8 | -6.2 | inactive |
| LOC441753 | 1 | 17.6 | 16.3 | inactive |
| USP51 | -1 | -13.8 | 7.8 | inactive |
| EGLN2 | -1 | -4.8 | -20.8 | inactive |
| PUM1 | 2 | 14.8 | 12.8 | active |
| LOC442729 | 0 | 0 | -2.7 | inactive |
| GLYCTK | 0 | -1.1 | 0.1 | inactive |
| USP9Y | -1 | -11.6 | -21.4 | inactive |
| FLJ16518 | 0 | -8.3 | -8.4 | inactive |
| DHRS3 | 0 | 11.3 | 19.4 | inactive |
| SLC6A2 | 0 | 11.9 | 15.5 | inactive |
| ZNF684 | 1 | 6.4 | -10.7 | inactive |
| SEMG2 | -1 | -18.7 | -38.7 | inactive |
| LOC400804 | 0 | 0.2 | -3.6 | inactive |
| FCMR | 0 | 0.9 | 0.7 | inactive |
| RACK1 | 0 | -5.7 | 2.6 | inactive |
| RNF34 | 1 | 20.7 | 28.8 | inactive |
| FCGR1BP | 0 | 27.2 | 21.1 | inactive |
| TRIM28 | 1 | 5.9 | 12.4 | inactive |
| LOC126669 | 0 | 14.6 | 15.7 | inactive |
| OR5D13 | 0 | 7.3 | 13.8 | inactive |
| CABP5 | 0 | 3.4 | -4.7 | inactive |
| LOC442121 | 0 | 4.5 | 9.3 | inactive |
| CDC34 | 0 | 10.3 | 8.8 | inactive |
| LOC440591 | 0 | 16.6 | 11.4 | inactive |
| LOC284134 | 0 | 6.9 | 12 | inactive |
| PARD3B | 2 | 19.7 | 20.3 | active |
| STRADB | 0 | -3.1 | 1.8 | inactive |
| TNFRSF17 | 1 | 9.6 | -6.6 | inactive |
| LOC441555 | 0 | 15 | 7.7 | inactive |
| CBLN4 | 0 | 4.7 | 5.5 | inactive |
| TCEA2 | 0 | 8 | 19.6 | inactive |

Reagents above marked active:
| gene symbol | two-siRNA summed score (-2 to +2) | mean protection from cisplatin (shift in death) (%) | protection from cisplatin (shift in death), siRNA C (%) | Outcome |
| --- | --- | --- | --- | --- |
| PUM1 | 2 | 14.8 | 12.8 | active |
| PARD3B | 2 | 19.7 | 20.3 | active |
